The text below walks through data of publication PMC10047360.

Amino acid sequences for entries named in this document (tags omitted). A change or cut given only in a name is not applied to a line headed by its entry. Residues count along the entry.
UniProt O75581, residues 20-1613: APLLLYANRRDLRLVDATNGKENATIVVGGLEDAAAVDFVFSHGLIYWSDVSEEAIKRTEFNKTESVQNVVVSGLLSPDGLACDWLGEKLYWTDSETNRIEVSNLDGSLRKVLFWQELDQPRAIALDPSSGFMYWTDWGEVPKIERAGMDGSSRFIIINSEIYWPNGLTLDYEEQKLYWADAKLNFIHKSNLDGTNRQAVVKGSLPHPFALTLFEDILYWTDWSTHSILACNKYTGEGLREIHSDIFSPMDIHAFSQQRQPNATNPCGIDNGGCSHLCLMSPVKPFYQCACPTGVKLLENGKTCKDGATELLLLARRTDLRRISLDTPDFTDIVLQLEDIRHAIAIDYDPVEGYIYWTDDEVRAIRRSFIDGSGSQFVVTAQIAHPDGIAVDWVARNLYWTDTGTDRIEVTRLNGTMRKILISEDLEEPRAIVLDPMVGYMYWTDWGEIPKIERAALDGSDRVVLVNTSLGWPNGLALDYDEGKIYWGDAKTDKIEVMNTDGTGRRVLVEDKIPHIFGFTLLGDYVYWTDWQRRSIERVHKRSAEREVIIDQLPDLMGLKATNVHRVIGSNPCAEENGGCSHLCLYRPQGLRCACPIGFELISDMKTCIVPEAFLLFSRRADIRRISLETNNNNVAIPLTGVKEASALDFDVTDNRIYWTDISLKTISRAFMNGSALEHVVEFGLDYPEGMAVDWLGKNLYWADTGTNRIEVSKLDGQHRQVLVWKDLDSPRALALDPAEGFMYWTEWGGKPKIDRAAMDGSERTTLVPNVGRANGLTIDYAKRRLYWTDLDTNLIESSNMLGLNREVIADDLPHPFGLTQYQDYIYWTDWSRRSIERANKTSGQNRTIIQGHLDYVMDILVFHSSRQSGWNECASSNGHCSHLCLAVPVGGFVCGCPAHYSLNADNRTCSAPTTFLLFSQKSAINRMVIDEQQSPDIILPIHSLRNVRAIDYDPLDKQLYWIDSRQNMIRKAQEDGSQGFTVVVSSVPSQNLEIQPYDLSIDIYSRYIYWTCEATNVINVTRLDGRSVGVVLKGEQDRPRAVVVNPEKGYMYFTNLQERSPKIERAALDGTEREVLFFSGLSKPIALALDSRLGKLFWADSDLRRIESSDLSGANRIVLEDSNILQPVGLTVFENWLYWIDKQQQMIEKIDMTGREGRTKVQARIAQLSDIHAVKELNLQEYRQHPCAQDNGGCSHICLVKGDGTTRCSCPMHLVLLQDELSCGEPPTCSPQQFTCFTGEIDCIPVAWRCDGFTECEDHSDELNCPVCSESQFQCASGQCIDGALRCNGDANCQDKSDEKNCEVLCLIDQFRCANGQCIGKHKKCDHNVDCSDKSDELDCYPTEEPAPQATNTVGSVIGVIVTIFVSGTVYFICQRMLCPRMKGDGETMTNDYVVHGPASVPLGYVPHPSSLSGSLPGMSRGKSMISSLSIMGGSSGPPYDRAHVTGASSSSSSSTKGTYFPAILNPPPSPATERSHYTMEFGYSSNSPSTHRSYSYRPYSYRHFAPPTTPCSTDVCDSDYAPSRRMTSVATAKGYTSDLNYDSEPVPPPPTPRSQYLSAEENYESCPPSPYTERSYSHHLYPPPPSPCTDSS
UniProt H2L9Y5: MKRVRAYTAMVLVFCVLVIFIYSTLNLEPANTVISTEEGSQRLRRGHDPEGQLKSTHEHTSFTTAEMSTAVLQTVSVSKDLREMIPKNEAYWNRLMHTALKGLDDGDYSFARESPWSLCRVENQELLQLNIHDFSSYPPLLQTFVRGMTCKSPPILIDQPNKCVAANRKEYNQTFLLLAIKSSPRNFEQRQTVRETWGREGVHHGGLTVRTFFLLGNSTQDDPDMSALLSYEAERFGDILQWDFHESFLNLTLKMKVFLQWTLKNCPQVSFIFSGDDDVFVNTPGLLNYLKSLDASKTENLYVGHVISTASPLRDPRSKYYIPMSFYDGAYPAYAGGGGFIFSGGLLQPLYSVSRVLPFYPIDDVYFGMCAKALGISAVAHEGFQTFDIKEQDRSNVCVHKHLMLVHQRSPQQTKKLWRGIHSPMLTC

No constants are given. Whether binding was seen depends on the method and setting. Binding seen in cells or lysates may run through a third protein. Binding can be weak; no strength is given.

In this experiment the target is human LRP6 (human) (UniProt O75581). Briefly: co-IP; cells lysed in 1% triton lysis buffer; IP with anti-LRP6 and protein G agarose (untagged LRP6) or anti-Flag M2 affinity gel (Flag-tagged LRP6); which one was used for this co-IP is not told.

As to “Oryzias latipes (medaka) B3GnT2-like glycosyltransferase (from UniProt H2L9Y5) (enzyme)”, the binding entry is listed as “binds”.
